Data from PubChem BioAssay AID504444 (National Center for Advancing Translational Sciences (NCATS), 2011).
Screen size: about 360,000 compounds; about 7,500 (2.1%) were called active. The shares of active, inactive and inconclusive entries below differ from those in the screen. Calls come from the whole dose curve; as a rule, active = well fitted inhibition curve with a large enough effect; inconclusive = small, poorly fitted or top-dose-only effect, or effect the other way; inactive = flat fitted curve, though single readings scatter. Potencies beside an inconclusive call are fits to weak or partial responses and may not hold up. Some structures have more than one record in an assay (separate samples or runs), and their calls can disagree.

Test: Nrf2 qHTS screen for inhibitors; note: nearly all actives have a fitted effect of over 60% in size
Settings: A549 ARE-Fluc reporter, luciferase luminescence, 18-24 h; activity change, negative = inhibition: at 46 µM (top of the series)
In short: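 Concentration-response testing used A549 ARE_Fluc cells at 5000 cells/well. Following an 18-24 h compound incubation, viability was read by fluorescence (Ex 405/Em 525) and luciferase output by luminescence.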
% is set by controls: 0 for no effect and ±100 for the full control effect; potency is the fitted concentration of half-maximal effect.

SMILES | Potency | activity change, negative = inhibition
COc1cccc(CN(C)C(=O)c2cc(COc3ccc4ncccc4c3)on2)c1 | active: 3.66 µM | –
COc1ccccc1-c1cc(-c2ccccc2)nc(=O)[nH]1 | inconclusive: 29.1 µM [activator, partial curve, poor fit] | –
CCC(Oc1ccccc1)C(=O)Nc1ccc(S(=O)(=O)NCC2CCCO2)cc1 (stereo unspecified) | inconclusive: 29.1 µM [falling, single point] | –
OC(COC(c1ccc(Cl)cc1)c1ccc(Cl)cc1)CN1CCN(c2ccccn2)CC1 (stereo unspecified) | – | inactive: 3.23%
CC12CCC(=O)C=C1CCC1C2CCC2(C)C1CC[C@]2(O)C(=O)CO (stereo partly specified) | inconclusive: 2.31 µM [falling, partial curve] | –
Cc1ccc(-c2nc3ccccc3s2)cc1NC(=O)COc1ccccc1 | inconclusive: 5.8 µM [activator, full curve] | –
O=C(Cc1cccs1)NCc1cc(Cl)cc(Cl)c1 | inconclusive: 29.1 µM [activator, single point] | –
COc1ccc(NCC(=O)NN=C2CCS(=O)(=O)c3ccc(F)cc32)cc1 | – | inactive: 20.6%
NS(=O)(=O)c1ccc(NC(=S)NC(=O)c2ccc3c(c2)OCO3)cc1 | inconclusive: 6.51 µM [activator, single point] | –
CC(=O)Nc1ccc(NC(=O)COC(=O)/C(=C/c2ccccc2)n2nnnc2C)cc1 | inconclusive: 23.1 µM [falling, single point] | –
Cc1ccc(OCC(=O)Nc2ccc(Cl)cc2)c(-n2nc3ccccc3n2)c1 | – | inactive: 2.07%
COc1cccc(-c2nnc(Nc3nc4c(F)cccc4s3)o2)c1 | inconclusive: 3.66 µM [activator, full curve, poor fit] | –
CC(=O)Oc1cc2c(cc1Cl)C1(CC(c3ccccc3Cl)O2)CC(C)(C)NC(=S)N1 (stereo unspecified) | inconclusive: 29.1 µM [falling, single point] | –
Cc1ccc(OCC(=O)NCC2(N3CCOCC3)CCCCC2)cc1C | – | inactive: 1.85%
COc1cccc(-c2nnc(NC(=O)c3ccc(S(=O)(=O)N(CC(C)C)CC(C)C)cc3)o2)c1 | inconclusive: 1.46 µM [falling, full curve] | –
COc1ccc(CCN2C(=O)C(Oc3ccccc3C)C2c2ccc3c(c2)OCO3)cc1 (stereo unspecified) | inconclusive: 16.4 µM [falling, single point] | –
Cc1ccc(S(=O)(=O)N2CCCC(C)C2)cc1 (stereo unspecified) | – | inactive: -10.9%
CCc1cc2c(=O)c(-c3nc4ccccc4n3C)c(C)oc2c(CN2CCN(CCO)CC2)c1O | inconclusive: 0.731 µM [falling, full curve, poor fit] | –
C=CCn1c(=S)[nH]c2cc(-c3ccccc3)sc2c1=O | inconclusive: 6.51 µM [falling, single point] | –
NC(=NCCc1ccccc1)NC(=O)c1cc(Cl)ccc1O | inconclusive: 29.1 µM [activator, single point] | –
O=C(c1cccc(Cl)c1)N1CCN(c2ncnc3c2cnn3-c2ccccc2)CC1 | – | inactive: -7.46%

In the list so far, 2 have an NH in an aromatic ring.
SMILES | Potency | activity change, negative = inhibition
COc1ccccc1-c1cc(-c2ccccc2)nc(=O)[nH]1 | inconclusive: 29.1 µM [activator, partial curve, poor fit] | –
C=CCn1c(=S)[nH]c2cc(-c3ccccc3)sc2c1=O | inconclusive: 6.51 µM [falling, single point] | –

(list continues)

SMILES | Potency | activity change, negative = inhibition
COc1ccc(/C=C(/NC(=O)c2ccccc2)C(=O)NCCCn2ccnc2)cc1OC | inconclusive: 7.31 µM [activator, partial curve, poor fit] | –
Cc1ccc(COc2coc(CN3CCN(C(=O)c4ccco4)CC3)cc2=O)cc1 | inconclusive: 29.1 µM [activator, partial curve, poor fit] | –
Cc1c(C(=O)NCCO)sc2nc3n(c(=O)c12)CCC3 | inconclusive: 1.03 µM [falling, full curve, poor fit] | –
O=C(C1CCN(c2ncnc3c2nc2n3CCCCC2)CC1)N1CCN(c2ccc(F)cc2)CC1 | active: 18.4 µM | –
O=c1c[n+]([O-])c2ccccc2n1OCc1c(F)cccc1F | inconclusive: 16.4 µM [activator, partial curve, poor fit] | –
N/C(=N\N=C\c1ccnc2ccccc12)SC1CC(=O)N(c2ccc(Br)cc2)C1=O (stereo unspecified) | inconclusive: 29.1 µM [falling, single point] | –
O=C(Cc1ccc(Cl)cc1)c1ccccc1 | inconclusive: 6.51 µM [activator, partial curve, poor fit] | –
Cn1cnc(C(=O)N2CCN(c3ccccc3)CC2)c1C(=O)N1CCN(c2ccccc2)CC1 | inconclusive: 29.1 µM [activator, single point] | –
CCOC(=O)N1CCN(C(=O)CCn2c(=S)[nH]c3ccccc3c2=O)CC1 | inconclusive: 29.1 µM [falling, partial curve, poor fit] | –
Cc1ccc2c(=O)cc(C(=O)Nc3ccc(S(=O)(=O)Nc4nc(C)cc(C)n4)cc3)oc2c1 | – | inactive: -10.8%
COc1ccc(NC(=O)C2CCCN(S(=O)(=O)c3ccc4c(c3)CCCC(=O)N4)C2)cc1OC (stereo unspecified) | – | inactive: -20%
O=C(/C=C/c1ccccc1)NC1CC2CCC1C2 (stereo unspecified) | inconclusive: 7.31 µM [activator, partial curve, poor fit] | –
Cc1ccc(N/N=C/c2ccc3c(c2)OCCO3)cc1Cl | inconclusive: 25.9 µM [activator, single point] | –
Cc1[nH]c2ccccc2c1/C=N/Nc1ccc([N+](=O)[O-])cc1 | inconclusive: 16.4 µM [falling, partial curve, poor fit] | –
COc1ccc(-c2nc3ccc(NC(=O)COC(C)=O)cc3c(=O)n2Cc2ccccc2)cc1COc1ccc(NC(C)=O)cc1 | inconclusive: 9.2 µM [falling, partial curve, poor fit] | –
CC(=O)Nc1cccc(-c2nc3ccccc3s2)c1 | inconclusive: 8.2 µM [activator, partial curve] | –
CCc1cc2c(=O)n(-c3ccccc3)cnc2s1 | inconclusive: 10.3 µM [activator, partial curve] | –
CCN(CC(=O)NCc1ccc(F)cc1)C(=O)/C=C/c1ccc(S(=O)(=O)N(CC)CC)cc1 | inconclusive: 29.1 µM [activator, single point] | –
O=C(CSCc1ccccc1)Nc1ccccc1 | inconclusive: 29.1 µM [activator, single point] | –
COCCNC(=O)CSc1cn(CC(=O)N2CCCCCC2)c2ccccc12 | inconclusive: 9.2 µM [activator, partial curve] | –
